Measurements as given in the supplement of paper PMC10849652.
This is one part of the list.

Amino acid sequences for entries named in this document (tags omitted). A change or cut given only in a name is not applied to a line headed by its entry.
UniProt Q9NT62, whole entry, looked up: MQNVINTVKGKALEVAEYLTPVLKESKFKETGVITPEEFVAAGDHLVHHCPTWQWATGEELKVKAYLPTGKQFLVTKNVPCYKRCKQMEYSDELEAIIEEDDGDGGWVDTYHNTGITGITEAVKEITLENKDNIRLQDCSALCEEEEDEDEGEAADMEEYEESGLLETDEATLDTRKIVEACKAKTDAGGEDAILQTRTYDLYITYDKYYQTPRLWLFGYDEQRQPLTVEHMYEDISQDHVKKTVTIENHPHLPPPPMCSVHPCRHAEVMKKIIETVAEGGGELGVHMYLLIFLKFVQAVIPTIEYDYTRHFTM
UniProt Q8N9N2: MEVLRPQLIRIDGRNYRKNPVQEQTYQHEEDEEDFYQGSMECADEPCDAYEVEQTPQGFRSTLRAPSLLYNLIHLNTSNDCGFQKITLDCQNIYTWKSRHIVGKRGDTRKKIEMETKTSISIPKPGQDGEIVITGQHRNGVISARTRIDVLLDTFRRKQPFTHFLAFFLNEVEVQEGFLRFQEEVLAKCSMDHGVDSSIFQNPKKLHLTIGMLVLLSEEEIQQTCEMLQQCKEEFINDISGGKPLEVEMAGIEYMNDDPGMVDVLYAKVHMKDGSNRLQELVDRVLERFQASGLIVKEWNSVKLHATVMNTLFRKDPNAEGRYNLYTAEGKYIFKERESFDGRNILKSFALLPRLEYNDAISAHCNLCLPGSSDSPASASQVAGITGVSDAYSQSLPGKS
UniProt Q06055: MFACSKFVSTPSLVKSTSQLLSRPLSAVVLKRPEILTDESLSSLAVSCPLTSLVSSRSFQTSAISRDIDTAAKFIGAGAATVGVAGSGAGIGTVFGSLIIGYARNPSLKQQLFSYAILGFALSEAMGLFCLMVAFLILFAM
UniProt O00244: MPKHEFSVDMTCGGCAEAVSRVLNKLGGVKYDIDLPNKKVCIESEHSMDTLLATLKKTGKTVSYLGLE
UniProt P35670: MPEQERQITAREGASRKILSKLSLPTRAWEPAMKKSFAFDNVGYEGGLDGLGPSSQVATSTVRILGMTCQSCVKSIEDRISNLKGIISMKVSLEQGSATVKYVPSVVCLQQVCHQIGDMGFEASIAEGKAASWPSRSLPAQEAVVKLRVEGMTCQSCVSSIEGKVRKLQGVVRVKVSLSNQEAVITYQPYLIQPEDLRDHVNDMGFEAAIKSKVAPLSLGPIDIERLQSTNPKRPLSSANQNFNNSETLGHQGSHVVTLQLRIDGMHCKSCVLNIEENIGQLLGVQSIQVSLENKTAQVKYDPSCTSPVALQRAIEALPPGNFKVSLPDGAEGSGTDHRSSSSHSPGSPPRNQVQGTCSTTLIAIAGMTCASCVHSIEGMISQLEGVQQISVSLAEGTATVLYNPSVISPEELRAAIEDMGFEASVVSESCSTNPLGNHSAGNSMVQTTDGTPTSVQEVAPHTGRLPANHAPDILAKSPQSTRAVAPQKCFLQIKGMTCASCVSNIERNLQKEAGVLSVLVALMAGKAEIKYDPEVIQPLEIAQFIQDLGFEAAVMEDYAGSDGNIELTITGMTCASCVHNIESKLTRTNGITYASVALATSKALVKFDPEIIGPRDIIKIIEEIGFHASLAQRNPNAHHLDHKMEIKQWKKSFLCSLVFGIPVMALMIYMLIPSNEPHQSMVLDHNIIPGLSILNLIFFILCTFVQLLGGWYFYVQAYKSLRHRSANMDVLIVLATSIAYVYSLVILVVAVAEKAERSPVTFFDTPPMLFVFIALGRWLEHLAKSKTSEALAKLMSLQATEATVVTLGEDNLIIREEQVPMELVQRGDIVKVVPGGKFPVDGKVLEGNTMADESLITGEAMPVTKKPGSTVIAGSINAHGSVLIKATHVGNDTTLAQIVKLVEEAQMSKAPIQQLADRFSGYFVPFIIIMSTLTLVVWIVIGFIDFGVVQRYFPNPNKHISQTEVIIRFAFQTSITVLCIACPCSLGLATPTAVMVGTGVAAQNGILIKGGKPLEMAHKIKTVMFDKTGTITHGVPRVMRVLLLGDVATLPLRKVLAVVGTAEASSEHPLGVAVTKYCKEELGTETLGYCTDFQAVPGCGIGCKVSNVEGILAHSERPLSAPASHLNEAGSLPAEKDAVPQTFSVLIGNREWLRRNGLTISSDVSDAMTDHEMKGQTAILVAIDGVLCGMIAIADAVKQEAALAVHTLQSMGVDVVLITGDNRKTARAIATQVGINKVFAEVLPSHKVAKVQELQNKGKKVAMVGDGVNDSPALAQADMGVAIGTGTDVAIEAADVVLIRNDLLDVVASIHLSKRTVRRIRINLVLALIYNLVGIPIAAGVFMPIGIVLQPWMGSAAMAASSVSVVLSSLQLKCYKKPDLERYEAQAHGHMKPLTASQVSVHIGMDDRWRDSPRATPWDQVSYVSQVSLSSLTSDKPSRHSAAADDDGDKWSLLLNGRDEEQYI
UniProt Q9NQ11: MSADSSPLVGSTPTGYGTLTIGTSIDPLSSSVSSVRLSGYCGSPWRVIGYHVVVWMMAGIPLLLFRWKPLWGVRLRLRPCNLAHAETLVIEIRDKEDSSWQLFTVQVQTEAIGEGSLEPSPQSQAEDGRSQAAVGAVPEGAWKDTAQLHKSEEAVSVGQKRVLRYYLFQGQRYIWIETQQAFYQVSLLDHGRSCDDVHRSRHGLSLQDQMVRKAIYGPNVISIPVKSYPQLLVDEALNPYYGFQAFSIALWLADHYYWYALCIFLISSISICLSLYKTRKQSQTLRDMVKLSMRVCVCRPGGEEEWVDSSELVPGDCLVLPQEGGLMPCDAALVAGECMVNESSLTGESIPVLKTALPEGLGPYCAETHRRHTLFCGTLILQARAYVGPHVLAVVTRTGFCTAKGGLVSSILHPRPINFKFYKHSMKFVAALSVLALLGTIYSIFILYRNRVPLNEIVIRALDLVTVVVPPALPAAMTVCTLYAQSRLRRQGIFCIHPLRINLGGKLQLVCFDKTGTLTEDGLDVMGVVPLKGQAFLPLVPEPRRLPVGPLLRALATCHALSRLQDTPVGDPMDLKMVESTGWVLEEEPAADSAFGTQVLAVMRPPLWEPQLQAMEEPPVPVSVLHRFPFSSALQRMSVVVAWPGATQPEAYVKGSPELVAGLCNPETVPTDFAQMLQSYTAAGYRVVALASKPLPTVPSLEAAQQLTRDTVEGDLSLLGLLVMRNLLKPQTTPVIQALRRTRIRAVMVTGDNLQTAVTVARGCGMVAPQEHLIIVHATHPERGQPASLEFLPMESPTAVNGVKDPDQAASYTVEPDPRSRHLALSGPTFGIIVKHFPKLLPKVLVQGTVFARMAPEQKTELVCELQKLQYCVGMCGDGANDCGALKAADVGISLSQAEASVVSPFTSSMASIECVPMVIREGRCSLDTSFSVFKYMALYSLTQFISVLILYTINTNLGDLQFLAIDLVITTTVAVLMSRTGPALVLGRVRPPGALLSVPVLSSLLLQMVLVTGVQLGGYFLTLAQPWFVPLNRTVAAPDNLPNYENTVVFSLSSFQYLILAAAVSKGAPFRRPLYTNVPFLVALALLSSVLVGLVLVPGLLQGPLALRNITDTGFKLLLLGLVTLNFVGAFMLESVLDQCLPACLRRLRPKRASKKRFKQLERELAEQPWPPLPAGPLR
UniProt Q96IX5: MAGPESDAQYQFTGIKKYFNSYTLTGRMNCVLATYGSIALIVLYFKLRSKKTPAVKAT
UniProt P54707, whole entry, looked up: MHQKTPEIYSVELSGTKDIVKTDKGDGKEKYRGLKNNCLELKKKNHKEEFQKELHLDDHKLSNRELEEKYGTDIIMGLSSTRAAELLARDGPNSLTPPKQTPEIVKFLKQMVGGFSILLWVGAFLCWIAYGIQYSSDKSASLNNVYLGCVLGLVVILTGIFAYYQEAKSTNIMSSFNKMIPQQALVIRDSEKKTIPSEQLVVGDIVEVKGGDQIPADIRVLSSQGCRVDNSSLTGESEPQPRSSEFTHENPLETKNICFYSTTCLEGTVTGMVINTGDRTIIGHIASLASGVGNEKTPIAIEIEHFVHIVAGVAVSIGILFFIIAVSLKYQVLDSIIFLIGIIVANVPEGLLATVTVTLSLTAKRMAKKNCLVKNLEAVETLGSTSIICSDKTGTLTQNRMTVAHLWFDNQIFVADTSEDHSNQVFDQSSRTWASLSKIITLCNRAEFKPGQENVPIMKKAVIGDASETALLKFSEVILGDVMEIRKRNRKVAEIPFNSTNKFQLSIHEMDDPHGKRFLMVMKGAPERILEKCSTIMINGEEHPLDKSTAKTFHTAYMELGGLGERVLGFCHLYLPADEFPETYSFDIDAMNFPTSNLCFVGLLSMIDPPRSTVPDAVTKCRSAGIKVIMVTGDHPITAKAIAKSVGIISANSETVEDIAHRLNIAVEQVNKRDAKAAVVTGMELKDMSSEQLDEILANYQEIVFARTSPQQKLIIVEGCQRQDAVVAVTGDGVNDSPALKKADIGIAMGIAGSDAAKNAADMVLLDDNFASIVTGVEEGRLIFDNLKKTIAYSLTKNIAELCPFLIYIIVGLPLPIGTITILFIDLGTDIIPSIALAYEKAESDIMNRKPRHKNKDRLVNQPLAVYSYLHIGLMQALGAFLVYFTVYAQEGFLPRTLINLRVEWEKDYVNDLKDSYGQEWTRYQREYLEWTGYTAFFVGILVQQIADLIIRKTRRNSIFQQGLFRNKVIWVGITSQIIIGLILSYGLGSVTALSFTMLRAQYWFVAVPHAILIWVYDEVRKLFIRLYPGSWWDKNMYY
UniProt Q66PJ3: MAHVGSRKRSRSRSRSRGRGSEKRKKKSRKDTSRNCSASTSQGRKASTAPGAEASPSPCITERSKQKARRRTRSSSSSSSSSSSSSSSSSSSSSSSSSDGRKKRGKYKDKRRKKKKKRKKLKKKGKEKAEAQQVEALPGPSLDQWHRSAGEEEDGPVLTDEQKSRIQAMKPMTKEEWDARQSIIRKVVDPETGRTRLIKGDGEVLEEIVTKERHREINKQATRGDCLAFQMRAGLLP
UniProt Q9Y6H3: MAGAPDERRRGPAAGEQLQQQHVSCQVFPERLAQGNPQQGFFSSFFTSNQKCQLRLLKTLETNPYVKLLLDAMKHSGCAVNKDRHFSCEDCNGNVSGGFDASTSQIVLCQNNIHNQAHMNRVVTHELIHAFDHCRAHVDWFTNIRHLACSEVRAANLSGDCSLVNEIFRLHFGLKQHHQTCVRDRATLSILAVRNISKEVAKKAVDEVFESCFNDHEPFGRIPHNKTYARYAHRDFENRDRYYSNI
UniProt Q12797: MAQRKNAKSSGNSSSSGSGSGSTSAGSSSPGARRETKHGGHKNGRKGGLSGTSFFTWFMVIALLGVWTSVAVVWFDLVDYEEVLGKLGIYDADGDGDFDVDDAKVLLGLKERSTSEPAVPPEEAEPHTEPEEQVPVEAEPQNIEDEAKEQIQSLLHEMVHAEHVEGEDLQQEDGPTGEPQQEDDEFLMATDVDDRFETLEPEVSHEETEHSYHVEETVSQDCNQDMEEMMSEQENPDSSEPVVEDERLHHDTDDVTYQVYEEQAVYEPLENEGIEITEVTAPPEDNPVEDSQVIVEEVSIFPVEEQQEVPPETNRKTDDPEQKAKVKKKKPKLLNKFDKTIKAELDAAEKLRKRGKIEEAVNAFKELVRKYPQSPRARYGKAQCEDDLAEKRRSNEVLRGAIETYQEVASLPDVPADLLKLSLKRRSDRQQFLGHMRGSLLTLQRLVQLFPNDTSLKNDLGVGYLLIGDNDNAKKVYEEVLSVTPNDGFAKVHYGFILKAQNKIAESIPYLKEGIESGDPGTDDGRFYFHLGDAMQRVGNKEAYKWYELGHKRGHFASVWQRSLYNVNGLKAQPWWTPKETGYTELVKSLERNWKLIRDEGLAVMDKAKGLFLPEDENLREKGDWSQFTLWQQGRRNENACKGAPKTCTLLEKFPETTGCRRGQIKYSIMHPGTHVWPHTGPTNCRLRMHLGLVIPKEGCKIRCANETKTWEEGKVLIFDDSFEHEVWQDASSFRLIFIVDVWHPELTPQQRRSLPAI
UniProt P08243: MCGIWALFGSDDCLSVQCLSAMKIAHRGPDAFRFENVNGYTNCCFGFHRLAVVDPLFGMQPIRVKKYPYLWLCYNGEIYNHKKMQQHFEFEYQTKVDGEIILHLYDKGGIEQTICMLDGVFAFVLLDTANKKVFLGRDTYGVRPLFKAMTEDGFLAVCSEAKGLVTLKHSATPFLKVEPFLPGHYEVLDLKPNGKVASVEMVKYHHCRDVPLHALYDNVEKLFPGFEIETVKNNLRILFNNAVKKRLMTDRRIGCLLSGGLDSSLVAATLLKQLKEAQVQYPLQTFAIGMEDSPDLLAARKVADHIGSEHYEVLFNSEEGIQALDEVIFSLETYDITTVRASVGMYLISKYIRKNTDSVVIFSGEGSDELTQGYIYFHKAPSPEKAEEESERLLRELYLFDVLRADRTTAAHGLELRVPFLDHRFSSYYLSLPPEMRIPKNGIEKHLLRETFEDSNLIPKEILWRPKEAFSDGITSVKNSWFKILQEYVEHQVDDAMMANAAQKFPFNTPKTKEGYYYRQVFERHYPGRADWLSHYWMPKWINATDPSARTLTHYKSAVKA
UniProt Q9UII2: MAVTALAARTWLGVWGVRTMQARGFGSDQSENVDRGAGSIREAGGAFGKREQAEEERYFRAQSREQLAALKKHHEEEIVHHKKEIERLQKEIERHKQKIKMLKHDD

How the values were obtained:
Assay in all cases: log2 fold change, soluble protein after heating vs DMSO (PISA); higher = thermal stabilisation; K562 cells, 10 uM, 30 min; active = over 0.2 and 3.5 SD of the protein, either way, in both replicates (recomputed)
[1] = compound: CS(=O)(=O)c1ccc(-c2cnc(N)c(C(=O)Nc3ccccc3)n2)cc1
Outline: (§1)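 Quantification of soluble protein used TMTpro 16plex LC-MS/MS, with channel sums equalised. Samples were the supernatant after 21,000xg for 90 min of pooled aliquots from K562 cells (2×10^6 cells/mL) treated with 10 μM compound for 30 min, heated for 3 min over 48°C-58°C, and extracted in PBS with 0.5% NP-40 at 4°C. Values, from duplicates, describe thermal stability against control samples on a log2 fold-change scale.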

[2] = compound: C[C@@H](Oc1cc(-c2cnn(C3CCNCC3)c2)cnc1N)c1c(Cl)ccc(F)c1Cl [crizotinib]
Outline: as §1

[3] = compound: C[C@@H]1COCCN1C2=NC(=NC(=C2)C3(CC3)S(=O)(=O)C)C4=C5C=CNC5=CC=C4
Outline: as §1

[4] = compound: C[C@H](C1=CC=C(C=C1)C(=O)NC2=C3C=CNC3=NC=C2)N
Outline: as §1

[5] = compound: C[C@H](Nc1ncnc2nc[nH]c12)c1cc2cccc(Cl)c2c(=O)n1-c1ccccc1 [duvelisib]
Outline: as §1

[6] = compound: Cc1cc(Nc2cc(CN3CCOCC3)c3nc(C)c(Cc4ccc(Cl)cc4F)n3n2)n[nH]1 [gandotinib]
Outline: as §1

[7] = compound: Cc1cc(Nc2cc(N3CCN(C)CC3)nc(Sc3ccc(NC(=O)C4CC4)cc3)n2)n[nH]1 [tozasertib]
Outline: as §1

[8] = compound: Cc1cc(SCc2sc(-c3ccc(C(F)(F)F)cc3)nc2C)ccc1OCC(=O)O
Outline: as §1

[9] = compound: Cc1ccc(-n2nc(C(C)(C)C)cc2NC(=O)Nc2ccc(OCCN3CCOCC3)c3ccccc23)cc1 [doramapimod]
Outline: as §1

[10] = compound: Cc1ccc(C(=O)N(CCCN)[C@@H](c2nc3cc(Cl)ccc3c(=O)n2Cc2ccccc2)C(C)C)cc1 [ispinesib]
Outline: as §1

Target | log2 fold change [1] | log2 fold change [2] | log2 fold change [3] | log2 fold change [4] | log2 fold change [5] | log2 fold change [6] | log2 fold change [7] | log2 fold change [8] | log2 fold change [9] | log2 fold change [10]
ATG3 (UniProt Q9NT62) | inactive: 0.03 | inactive: -0.009 | inactive: 0.039 | inactive: -0.048 | inactive: 0.039 | inactive: -0.024 | inactive: -0.007 | inactive: -0.029 | inactive: 0.007 | inactive: 0.05
ARSA (UniProt P15289) | inactive: 0.02 | inactive: -0.041 | inactive: 0.047 | inactive: 0.065 | inactive: 0.146 | inactive: 0.062 | inactive: 0.145 | inactive: -0.069 | inactive: 0.004 | inactive: -0.065
ASCC1 isoform 2 (UniProt Q8N9N2) | inactive: 0.113 | inactive: -0.155 | inactive: -0.042 | inactive: 0.056 | inactive: 0.011 | inactive: -0.108 | inactive: -0.057 | inactive: 0.066 | inactive: 0.049 | inactive: -0.103
ATG7 (UniProt O95352) | inactive: 0.038 | inactive: 0.02 | inactive: 0.047 | inactive: -0.061 | inactive: -0.02 | inactive: -0.151 | inactive: -0.004 | inactive: 0.1 | inactive: -0.003 | inactive: 0.048
ATP5MC2 isoform 2 (UniProt Q06055) | inactive: 0.064 | inactive: -0.049 | inactive: 0.161 | inactive: -0.089 | inactive: 0.067 | inactive: -0.059 | inactive: 0.002 | inactive: -0.148 | inactive: 0.047 | inactive: -0.072
ASCC3 (UniProt Q8N3C0) | inactive: 0.44 | inactive: -0.046 | inactive: -0.338 | inactive: 0.389 | inactive: -0.06 | inactive: 0.193 | inactive: 0.062 | inactive: 0.017 | inactive: 0.116 | inactive: -0.296
ATM (UniProt Q13315) | inactive: 0.059 | inactive: -0.105 | inactive: 0.099 | inactive: -0.087 | inactive: 0.036 | inactive: -0.036 | inactive: 0.036 | inactive: -0.025 | inactive: 0.023 | inactive: -0.007
ASPSCR1 isoform 2 (UniProt Q9BZE9) | inactive: 0.059 | inactive: -0.012 | inactive: 0.013 | inactive: 0.081 | inactive: 0.063 | inactive: -0.044 | inactive: 0.03 | inactive: 0.011 | inactive: 0.007 | inactive: 0.045
ARMC1 (UniProt Q9NVT9) | inactive: -0.024 | inactive: -0.118 | inactive: 0.047 | inactive: -0.045 | inactive: -0.013 | inactive: -0.035 | inactive: -0.006 | inactive: 0.064 | inactive: -0.05 | inactive: -0.079
ATL3 (UniProt Q6DD88) | inactive: 0.007 | inactive: -0.082 | inactive: 0.047 | inactive: -0.078 | inactive: 0.026 | inactive: -0.061 | inactive: -0.026 | inactive: 0.019 | inactive: -0.01 | inactive: 0.014
ASCC2 (UniProt Q9H1I8) | inactive: -0.011 | inactive: -0.158 | inactive: -0.024 | inactive: 0.253 | inactive: 0.033 |  |  | inactive: 0.067 | inactive: 0.136 | inactive: -0.142
ATP6AP1 (UniProt Q15904) | inactive: -0.006 | inactive: -0.134 | inactive: -0.161 | inactive: 0.146 |  | inactive: -0.03 |  | inactive: 0.055 | inactive: 0.045 | active: -0.317
ATP6V1H (UniProt Q9UI12) | inactive: -0.045 | inactive: -0.199 | inactive: 0.019 | inactive: 0.003 |  | inactive: 0.021 |  | inactive: 0.014 | inactive: 0.038 | inactive: -0.089
ATOX1 (UniProt O00244) | inactive: -0.051 | inactive: -0.057 | inactive: 0.235 | inactive: -0.269 |  | inactive: 0.068 |  | inactive: -0.071 | inactive: 0.051 | inactive: 0.212
ATP7B (UniProt P35670) | inactive: -0.009 | inactive: -0.005 | inactive: 0.03 | inactive: 0.065 |  | inactive: -0.141 |  | inactive: -0.014 | inactive: 0.137 | inactive: -0.015
ATP6V0A2 (UniProt Q9Y487) | inactive: -0.002 | inactive: -0.197 | inactive: -0.048 | inactive: 0.07 |  | inactive: -0.006 |  | inactive: 0.064 | inactive: 0.09 | inactive: -0.18
ATP13A2 (UniProt Q9NQ11) | inactive: -0.012 | inactive: -0.214 | inactive: 0.031 | inactive: 0.008 |  | inactive: 0.01 |  | inactive: 0.018 | inactive: 0.025 | active: -0.363

Target | log2 fold change [1] | log2 fold change [2] | log2 fold change [3] | log2 fold change [4] | log2 fold change [5] | log2 fold change [6] | log2 fold change [7] | log2 fold change [8] | log2 fold change [9] | log2 fold change [10]
ATP5MD (UniProt Q96IX5) | inactive: 0.084 | inactive: 0.165 | inactive: -0.001 | inactive: -0.184 | inactive: -0.025 | inactive: 0.109 | inactive: 0.072 | inactive: 0.027 | inactive: -0.141 | inactive: -0.009
ATP6V1A (UniProt P38606) | inactive: -0.021 | inactive: -0.153 | inactive: -0.003 | inactive: 0.023 | inactive: 0.008 | inactive: 0.069 | inactive: 0.022 | inactive: -0.002 | inactive: 0.016 | inactive: -0.123
ATP12A isoform 2 (UniProt P54707) | inactive: 0.02 | inactive: 0.162 | inactive: 0.138 | inactive: -0.087 |  | inactive: -0.047 |  | inactive: -0.056 | inactive: -0.004 | inactive: 0.137
ARMC10 (UniProt Q8N2F6) | inactive: 0.002 | inactive: -0.04 | inactive: 0.016 | inactive: 0.006 |  | inactive: -0.09 |  | inactive: 0.108 | inactive: 0.018 | inactive: 0.027
ARL6IP4 (UniProt Q66PJ3) | inactive: 0.014 | inactive: 0.026 | inactive: 0.036 | inactive: -0.093 |  | inactive: 0.114 |  | inactive: -0.038 | inactive: 0.013 | inactive: -0.051
ATP23 (UniProt Q9Y6H3) | inactive: -0.002 | inactive: -0.116 | inactive: 0.044 | inactive: 0.072 |  | inactive: -0.128 |  | inactive: 0.046 | inactive: -0.051 | inactive: -0.188
ARPP19 (UniProt P56211) | inactive: -0.017 | inactive: 0.059 | inactive: 0.006 | inactive: -0.106 |  | inactive: 0.019 |  | inactive: -0.106 | inactive: -0.037 | inactive: 0.048
ATIC (UniProt P31939) | inactive: 0.108 | inactive: 0.092 | inactive: 0.101 | inactive: -0.083 |  | inactive: 0.066 |  | inactive: -0.015 | inactive: -0.029 | inactive: 0.096
ATP11A (UniProt P98196) | inactive: 0.017 | inactive: 0.042 | inactive: 0.032 | inactive: -0.103 |  | inactive: 0.027 |  | inactive: -0.055 | inactive: 0.018 | inactive: 0.092
ARPC5 (UniProt O15511) | inactive: -0.006 | inactive: 0.041 | inactive: -0.017 | inactive: -0.02 | inactive: 0.033 | inactive: 0.035 | inactive: 0.024 | inactive: -0.038 | inactive: 0.003 | inactive: 0.053
ASPH (UniProt Q12797) | inactive: -0.026 | inactive: 0 | inactive: -0.135 | inactive: 0.243 | inactive: -0.064 | inactive: 0.088 | inactive: 0.001 | inactive: 0.085 | inactive: 0.03 | inactive: -0.059
ASNS (UniProt P08243) | inactive: 0.003 | inactive: -0.015 | inactive: 0.044 | inactive: -0.045 |  | inactive: 0.002 |  | inactive: -0.016 | inactive: -0.026 | inactive: 0.031
ATP5IF1 (UniProt Q9UII2) | inactive: 0.004 | inactive: 0.058 | inactive: -0.006 | inactive: 0.018 |  | inactive: -0.056 |  | inactive: -0.082 | inactive: -0.015 | inactive: -0.019
ATP2A3 isoform 2 (UniProt Q93084) | inactive: -0.003 | inactive: 0.084 | inactive: -0.048 | inactive: -0.022 |  | inactive: -0.068 |  | inactive: -0.025 | inactive: -0.023 | inactive: -0.091
ATP1A4 (UniProt Q13733) | inactive: -0.013 | inactive: 0.091 | inactive: -0.067 | inactive: -0.066 |  | inactive: -0.026 |  | inactive: 0.038 | inactive: -0.086 | inactive: 0.032
ATP1B2 (UniProt P14415) | inactive: -0.01 | inactive: 0.189 | inactive: 0.068 | inactive: 0.125 | inactive: 0.053 | inactive: -0.024 | inactive: -0.137 | inactive: 0.029 | inactive: -0.189 | inactive: 0.057
